Results taken from PubChem BioAssay AID2685 (National Center for Advancing Translational Sciences (NCATS), 2010).
The list shows a part of the results. These are further read-outs of the screen, such as a control signal, another cell line or another target. No call is given for them. Most of these compounds were active or inconclusive in the main read-out, so they are no random draw. Words in brackets tell the shape of the fitted curve; partial curves, single points and poor fits give uncertain potencies.

Assay: qHTS Assay for Lipid Storage Modulators in Drosophila S3 Cells;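 for cell number change: cells counted by Cell Tracker Red CMTPX staining in the red channel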
Details: BODIPY lipid droplet fluorescence, 18-24 h; for cell number change: measured here: cell count max response, cells fed with added oleic acid
Summary of the method: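 Drosophila S3 cells loaded with oleic acid (400 uM, as added) and compounds at several concentrations; lipid droplets imaged by 488-nm laser-scanning cytometry, 500–530 nm intensity and object ratio to cell channel. Percent activity normalized to 20 uM Triacsin C.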

[1] = measured here: cell number channel AC50, cells fed with added oleic acid
[2] = measured here: lipid fluorescence (Fed channel) AC50, cells fed with added oleic acid

SMILES	cell number change	AC50 [1]	AC50 [2]
COc1ccc(S(=O)(=O)N2CCCCC2)cc1NC(=O)[C@@H]1CCCN1C(=O)c1cccs1	4.3%	–	–
Cc1noc(C)c1COC(=O)c1ccccc1Sc1ccccc1C#N	-41.5%	14.6 µM [falling, single point]	–
O=C(Cc1c[nH]c2ccccc12)NCC(=O)Nc1ccc(F)c(F)c1F	3.87%	–	6.51 µM [falling, single point]
Cc1oc(C)c2c(=O)ccc3c(c12)OC(N)=C(C#N)C3c1ccc(F)cc1 (stereo not drawn)	-19.2%	–	7.31 µM [falling, single point]
COc1ccc(-c2nnc(SCC(=O)c3cccs3)o2)cc1	-6.53%	–	1.16 µM [rising, full curve, poor fit]
COc1cc(NS(=O)(=O)c2ccc(N/C=C\C(=O)c3ccc(OC)c(OC)c3)cc2)nc(OC)n1	6.16%	–	2.91 µM [rising, partial curve]
CC1(C)CC(C2N3CC4(C)CN2CC(C)(C3)C4=O)CCO1 (stereo not drawn)	-9.15%	0.103 µM [falling, full curve, poor fit]	32.6 µM [falling, single point]
c1ccc(-c2ncc3c(ccc4ccccc43)n2)cc1	42.1%	32.6 µM [rising, partial curve, poor fit]	–
S=C(NCc1cccs1)Nc1ccccc1Cl	-11.5%	–	–
c1coc(CN2CN=C(Nc3nc4ccccc4s3)NC2)c1	24.4%	–	6.51 µM [falling, single point]
O=C(NCc1ccc(Cl)cc1)C1CCCN(C(=O)c2ccc(Cl)cc2)C1 (stereo not drawn)	-13%	–	–
C#CCNc1nc(C)nc2c1nnn2Cc1ccccc1F	-9.29%	–	0.731 µM [rising, partial curve]
COc1ccccc1C(=O)NC(CCSC)C(=O)NCc1ccncc1 (stereo not drawn)	11%	–	1.64 µM [rising, partial curve]
CCOc1ccc(NC(=O)c2cccc3c2C(=O)N(CCOC)C3)cc1	–	1.84 µM [rising, partial curve]	0.58 µM [rising, single point]
O=C1/C(=C/c2c[nH]c3ccccc23)CCC/C1=C\c1c[nH]c2ccccc12	-51.8%	32.6 µM [falling, single point]	0.58 µM [rising, partial curve, poor fit]
COCCNC(=S)NNC(=O)CSCc1ccc(Cl)cc1Cl	19.8%	–	–
Cc1cc(=O)oc2cc(OC(C)C(=O)NCCCN3CCCC3=O)c(Cl)cc12 (stereo not drawn)	6.19%	–	3.26 µM [rising, full curve]
O=C1OC(Nc2nc(-c3ccc(F)cc3)cs2)c2ccccc21 (stereo not drawn)	–	–	0.58 µM [rising, single point]

2 of the compounds above, with bars between the fields:
SMILES | cell number change | AC50 [1] | AC50 [2]
c1coc(CN2CN=C(Nc3nc4ccccc4s3)NC2)c1 | 24.4% | – | 6.51 µM [falling, single point]
Cc1cc(=O)oc2cc(OC(C)C(=O)NCCCN3CCCC3=O)c(Cl)cc12 (stereo not drawn) | 6.19% | – | 3.26 µM [rising, full curve]
